Key:
Assay type in all cases: cell-based
MKN45 = assay: Cell viability (CellTiter-Blue, 72 h), MKN45 gastric cancer cells; settings: 1% FBS
Method: (§1) The following cell lines were tested in this example: Lung Cancer (A549, NCI-H460); Pancreatic cancer (PANC1, Mia-Pa-Ca-2); Melanoma (WM115, A375); Ovarian cancer (OVCAR3, SKOV3); Gastric cancer (MKN45, HGC-27); Renal cancer (ACHN) and Bladder Cancer (RT112).
(§2) Each tumour cell line was maintained in vitro in RPMI 1640+10% heat inactivated FBS and 2 mM L-glutamine (growth media) at 37° C. in 5% CO2 and humidified conditions. The cells were harvested, washed, re-suspended into growth medium and counted. The cells were re-suspended into assay media (RPMI 1640+5% heat inactivated FBS+ and 2 mM L-glutamine) at 4×10^4 cells/ml (dependent upon cell type) and plated into the middle 240 wells of 384 well tissue culture plates (Corning CellBind, black-wall plates) 25 μl/well aliquots; 50 μl of growth media was aliquoted into the outer wells. There were 3 plates for each cell line.
(§3) The plates were incubated overnight at 37° C., in 5% humidified CO2.
(§4) The phytocannabinoid test compounds were prepared in 100% DMSO vehicle at a stock concentration of 20 and 40 mM.
(§5) Starting with the 20 mM stock in DMSO, this was serially diluted (2 fold) in DMSO in a 96-well plate, to 20 (no dilution), 10, 5, 2.5, 1.25, 0.625, 0.315, 0.157 and […]. Following this, 10 ul of each compound dilution was diluted into 990 ul of 1% (v/v) FBS media in a deep well block making the final concentrations of 200, 100, 50, 25, 12.5, 6.25, 3.125, 1.56 and 0.79 μM (2× final assay concentrations and 1% DMSO).
(§6) An equal volume of each cannabinoid in the combination (stock concentration 40 mM) was mixed together to make a stock of 20 mM of each cannabinoid in DMSO. This was serially diluted (2 fold) in DMSO in a 96-well plate, to 20 (no dilution), 10, 5, 2.5, 1.25, 0.625, 0.315, 0.157 and […]. Following this, 10 ul of each combination dilution was diluted into 990 ul of 1% (v/v) FBS media in a deep well block making the final concentrations of 200, 100, 50, 25, 12.5, 6.25, 3.125, 1.56 and 0.79 μM (2× final assay concentrations and 1% DMSO).
(§7) Cisplatin (stock of 1 mg/ml=3.33 mM in water) was diluted in 1% FBS media to give a stock concentration of 1 mM. This was then diluted in 1% FBS media from the stock solution to 200 μM, then serially diluted (3-fold) in 1% FBS media to 200 (no dilution), 66.66, 22.22, 7.41, 2.47, 0.82, 0.27, 0.09, 0.03 μM (2× final assay concentrations; no DMSO).
(§8) The plates were incubated for 72 h at 37° C. in 5% humidified CO2. To develop the plates, at 72 h, 10 μl of CellTiter-Blue™ reagent was added to each test/blank well.
(§9) The plates were incubated at 37° C., 5% humidified CO2. Fluorescence was measured using a Flex II Station plate reader (570 nm excitation wavelength, 600 nm emission wavelength, 590 nm cut-off) after 3 h.
(§10) The phytocannabinoid compounds CBD, CBGA, CBG, CBDA, THCV and THC were tested on a panel of lung (A549, NCI-H460), pancreatic (PANC1, Mia-Pa-Ca-2), melanoma (WM115, A375), ovarian (OVCAR3, SKOV3), gastric (MKN45, HGC-27), renal (ACHN) and bladder (RT112) cancer cell lines according to the protocol for 72 h in media containing 1% FBS.
(§11) The IC50 values for each phytocannabinoid and combination of CBD with the other phytocannabinoids was calculated for each cell line. The raw data values expressed in relative fluorescent units were normalised to the vehicle for each individual plate and any reduction in fluorescence indicated a decrease in viability.
(§12) This calculation was as described in Example 1 above.

PANC-1 = assay: Cell viability (CellTiter-Blue, 72 h), PANC-1 pancreatic cancer cells; settings: PANC-1, 1% FBS
Method: as §1, §2, §3, §4, §5, §6
(§13) Gemcitabine SOC was prepared in 100% DMSO to give a stock concentration of 20 mM. This was then serially diluted (3 fold) in DMSO in a 96-well plate, to 20 (no dilution), 6.6, 2.2, 0.741, 0.247, 0.082, 0.027, 0.009 and 0.003 mM. Following this, 10 ul of each dilution was further diluted into 990 ul of 1% (v/v) FBS media making the final concentrations of 200 (no dilution), 66.66, 22.22, 7.41, 2.47, 0.82, 0.27, 0.09, 0.03 μM (2× final assay concentrations and 1% DMSO).
as §8, §9, §10, §11, §12

A375 = assay: Cell viability (CellTiter-Blue, 72 h), A375 melanoma cells; settings: A375, 1% FBS
Method: as §1, §2, §3, §4, §5, §6, §7, §8, §9, §10, §11, §12

A549 = assay: Cell viability (CellTiter-Blue, 72 h), A549 lung cancer cells; settings: A549, 1% FBS
Method: as §1, §2, §3, §4, §5, §6
(§14) Taxotere SOC was prepared in 100% DMSO to give a stock concentration of 10 mM. This was diluted in DMSO from the stock solution to 200 μM, then serially diluted (3-fold) in DMSO to 200 (no dilution), 66.66, 22.22, 7.41, 2.47, 0.82, 0.27, 0.09, 0.03 μM. 10 ul of each of the taxotere dilutions was diluted in 990 ul of 1% (v/v) FBS media making the final concentrations of 2, 0.67, 0.22, 0.074, 0.0247, 0.0082, 0.0027 0.0009, 0.0003 μM (2× final assay concentrations and 1% DMSO).
as §8, §9, §10, §11, §12

WM115 = assay: Cell viability (CellTiter-Blue, 72 h), WM115 melanoma cells; settings: WM115, 1% FBS
Method: as §1, §2, §3, §4, §5, §6, §7, §8, §9, §10, §11, §12

NCI-H460 = assay: Cell viability (CellTiter-Blue, 72 h), NCI-H460 lung cancer cells; settings: NCI-H460, 1% FBS
Method: as §1, §2, §3, §4, §5, §6, §14, §8, §9, §10, §11, §12

Mia-Pa-Ca-2 = assay: Cell viability (CellTiter-Blue, 72 h), Mia-Pa-Ca-2 pancreatic cancer cells; settings: MIA-PA-CA2, 1% FBS
Method: as §1, §2, §3, §4, §5, §6, §13, §8, §9, §10, §11, §12

SKOV3 = assay: Cell viability (CellTiter-Blue, 72 h), SKOV3 ovarian cancer cells; settings: 1% FBS
Method: as §1, §2, §3, §4, §5, §6, §7, §8, §9, §10, §11, §12

ACHN = assay: Cell viability (CellTiter-Blue, 72 h), ACHN renal cancer cells; settings: 1% FBS
Method: as §1, §2, §3, §4, §5, §6, §14, §8, §9, §10, §11, §12

HGC-27 = assay: Cell viability (CellTiter-Blue, 72 h), HGC-27 gastric cancer cells; settings: HGC27 cells, 1% FBS
Method: as §1, §2, §3, §4, §5, §6, §7, §8, §9, §10, §11, §12

CCCCCc1cc(O)c2c(c1)OC(C)(C)[C@@H]1CCC(C)=C[C@@H]21 [THC, Tetrahydrocannabinol, reference compound]
m (shape parameter of the curve) (MKN45): 13.26
m (shape parameter of dose effect curve) (PANC-1): 6.63
m (shape parameter of dose effect curve) (A375): 4.67
m (shape parameter of dose effect curve) (A549): 13.60
m (shape parameter of dose effect curve) (WM115): 6.44
m (shape parameter of dose effect curve) (NCI-H460): 5.34
m (shape parameter of dose effect curve) (Mia-Pa-Ca-2): 5.72
m (shape parameter of the curve) (SKOV3): 12.17
m (shape parameter of the curve) (ACHN): 13.12
m (shape parameter of the curve) (HGC-27): 6.12

From patent publication US9962341B2, “Active pharmaceutical ingredient (API) comprising cannabinoids for use in the treatment of cancer” (GW Pharma Limited, priority 2014, dated 2018)
